Hit rate of the full screen: of about 360,000 compounds, about 7,500 (2.1%) were called active. Inconclusive results, whose numbers are uncertain, are shown with a selection of clear calls. The call rests on the fitted dose curve; in most records, active means well fitted inhibition curve with a large enough effect; inconclusive means small, poorly fitted or top-dose-only effect, or effect the other way; inactive means flat fitted curve, though single readings scatter. A potency beside an inconclusive call is a rough fit, not a confirmed value.
experiment: Nrf2 qHTS screen for inhibitors; conditions: A549 ARE-Fluc reporter, luciferase luminescence, 18-24 h; activity change, negative = inhibition: at 46 µM (top of the series); further: nearly all actives have a fitted effect of over 60% in size
Procedure, shortened: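 A549 ARE_Fluc cells, 5000/well, 5% FBS OPTI-MEM; compounds in dose-response, 18-24 h at 37 °C/5% CO2; CellTiter-Fluor viability read (Ex 405/Em 525), then BugLite luciferase luminescence = Nrf2 activity.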
On the % scale 0 is the no-effect control and ±100 the full control effect; potency means the concentration at half of the fitted maximal effect.

Compound	Potency	activity change, negative = inhibition
COc1ccc(Nc2nc(C#N)nc(NC3CCCC3)n2)cc1	inconclusive: 29.1 µM [falling, partial curve, poor fit]	–
Cc1ccc(-n2ncc(C(=O)N3CCN(c4cccc(C)c4)C(C)C3)c2C2CCN(C(=O)OC(C)(C)C)CC2)cc1 (configuration not stated)	inconclusive: 29.1 µM [falling, single point]	–
O=C(O)C(Cc1ccccc1)N1C(=O)c2cccc3cccc(c23)C1=O (configuration not stated)	inconclusive: 6.51 µM [activator, partial curve, poor fit]	–
O=C(Nc1c(F)cccc1F)c1cnc(N2CCN(c3ccccn3)CC2)c2ccccc12	active: 9.2 µM	–
C/C(=N\NC(=S)NCC(C)(C)C)c1cc(F)cc(F)c1O	active: 23.1 µM	–
CCOc1ccc(N2CC(c3nc4ccccc4n3Cc3cccc(Cl)c3)CC2=O)cc1 (configuration not stated)	inconclusive: 29.1 µM [falling, single point]	–
CCN1CCSc2ccc(C(=O)NC(C)c3ccccc3)cc21 (configuration not stated)	–	inactive: 11.8%
Cc1ccc(-c2noc(CCCC(=O)N3CCOCC3)n2)cc1	–	inactive: -26.4%
O=C(NCc1ccc(Cl)cc1)c1cc(S(=O)(=O)N2CCCCC2)c[nH]1	inconclusive: 14.6 µM [falling, single point]	–
Cc1cc(C)cc(C(=O)Nc2ccc(-c3nc4ncccc4o3)cc2)c1	inconclusive: 13 µM [falling, partial curve]	–
Cc1c2cnn(CC(=O)N3CCN(c4ccc(F)cc4)CC3)c(=O)c2c(C)n1Cc1ccc(F)cc1	inconclusive: 29.1 µM [falling, single point]	–
C=CCn1c(SCC(=O)Nc2c(C)n(C)n(-c3ccccc3)c2=O)nc2scc(-c3ccccc3)c2c1=O	–	inactive: -4.91%
CCc1ccc(CNC(=O)Cc2ccc(NC(=O)N3CCSc4ncccc43)cc2)cc1	inconclusive: 29.1 µM [falling, single point]	–
CCOC(=O)c1c(C)[nH]c(C(=O)N/N=C\c2ccccc2Cl)c1C	inconclusive: 32.6 µM [falling, single point]	–
S=c1c2c(nc3nc[nH]n13)CCC2	–	inactive: 13.8%
Cc1cccc(-c2nnc(SCC(=O)NC3CCCC3)o2)c1	inconclusive: 11.6 µM [activator, partial curve, poor fit]	–
Oc1ccc(NCc2cccc(OCc3ccccc3)c2)cc1	inconclusive: 18.4 µM [activator, partial curve, poor fit]	–
Cn1cc([N+](=O)[O-])c(C(=O)Nc2ccc3nc(-c4ccccc4)[nH]c3c2)n1	inconclusive: 20.6 µM [falling, single point]	–
COc1ccccc1C(=O)N/C(=C\c1ccc(Br)cc1)C(=O)NCC(=O)O	inconclusive: 6.51 µM [falling, single point]	–
CCN(CC)S(=O)(=O)c1cccc(S(=O)(=O)c2cccc(S(=O)(=O)N(CC)CC)c2)c1	active: 9.2 µM	–
CC(C)N(CCn1cnc2c([nH]c3ccccc32)c1=O)C(C)C	–	inactive: 11.1%

Copied from the results shown (3 entries):
Compound	Potency	activity change, negative = inhibition
C=CCn1c(SCC(=O)Nc2c(C)n(C)n(-c3ccccc3)c2=O)nc2scc(-c3ccccc3)c2c1=O	–	inactive: -4.91%
CCc1ccc(CNC(=O)Cc2ccc(NC(=O)N3CCSc4ncccc43)cc2)cc1	inconclusive: 29.1 µM [falling, single point]	–
CCOC(=O)c1c(C)[nH]c(C(=O)N/N=C\c2ccccc2Cl)c1C	inconclusive: 32.6 µM [falling, single point]	–

Continuation.

Compound	Potency	activity change, negative = inhibition
O=C(NCc1ccco1)c1ccc(-c2cccc(Cl)c2)o1	inconclusive: 2.91 µM [activator, full curve]	–
COc1ccc2ccccc2c1-c1sc(Nc2ccccc2)n[n+]1-c1ccc(F)cc1	–	inactive: 10.9%
CC(C)C[C@H](NC(=O)c1nc[nH]c1C(=O)N[C@@H](CCCCNC(=O)OC(C)(C)C)C(=O)OC(C)(C)C)C(=O)OC(C)(C)C	inconclusive: 29.1 µM [falling, single point]	–
CC1(C(=O)OCC(=O)N2c3ccccc3Sc3ccccc32)CC1(Cl)Cl (configuration not stated)	inconclusive: 23.1 µM [falling, single point]	–
COc1ccccc1CCNC(=O)CN1C(=O)c2ccccc2S1(=O)=O	–	inactive: -18.7%
O=C(Cn1cc(Cl)c([N+](=O)[O-])n1)NCCC1=CCCCC1	inconclusive: 14.6 µM [activator, single point]	–
O=C(Nc1ccnn1C1CCN(Cc2cc(Cl)ccc2O)CC1)C1CC1	inconclusive: 14.6 µM [falling, single point]	–
CCOc1ccc(-c2cc(NC(=O)Nc3cccc(C(C)=O)c3)c(C(=O)OC)s2)cc1	inconclusive: 23.1 µM [activator, single point]	–
CC(=O)c1c(C)[nH]c(C(=O)NC(C)c2ccccc2)c1C (configuration not stated)	inconclusive: 5.17 µM [falling, full curve]	–
COc1ccc(/C(C)=N/Nc2nccnc2Cl)cc1	inconclusive: 18.4 µM [activator, partial curve]	–
CCOC(=O)Cc1csc(NC(=O)c2ccoc2C)n1	inconclusive: 8.2 µM [activator, partial curve]	–
COc1ccc(N2CCN(C(=O)CCc3c(C)nn(-c4ccc(N5CCCC5)nn4)c3C)CC2)cc1	inconclusive: 29.1 µM [falling, single point]	–
O=C(COc1ccc([N+](=O)[O-])cc1)Nc1cccnc1	inconclusive: 29.1 µM [activator, single point]	–
COc1ccc(OC)c(NC(=S)N2CCN(Cc3ccccc3)CC2)c1	inconclusive: 32.6 µM [falling, single point]	–
COCCN(CC(=O)Nc1cccc(C)c1C)C(=O)C1(c2ccc(Cl)cc2)CCC1	inconclusive: 18.4 µM [falling, single point]	–
CCn1c(SCC(=O)Nc2cc(OC)c(OC)c(OC)c2)nnc1-c1cccs1	inconclusive: 32.6 µM [falling, single point]	–
O=C(NN=Cc1cc(Br)c(O)c(Br)c1)c1ccccc1NS(=O)(=O)c1cccs1	–	inactive: -0.0584%
O=C1Nc2cccnc2N(C(=O)CCl)c2ccccc21	inconclusive: 16.4 µM [falling, partial curve, poor fit]	–
Fc1ccc(-c2noc3ncnc(N4CCN(c5ccccc5)CC4)c23)cc1	inconclusive: 32.6 µM [falling, single point]	–
CC(C)N1CCc2c(sc(NC(=O)c3ccc(C(=O)c4ccccc4)cc3)c2C(N)=O)C1	inconclusive: 16.4 µM [falling, partial curve, poor fit]	–
C/C=C1\COC(C(=O)NCCOCCO)(C(F)(F)F)C=C1C=C1CCCCC1 (configuration not stated)	–	inactive: 6.9%

Reference: PubChem BioAssay AID504444 (National Center for Advancing Translational Sciences (NCATS), 2011)
